The results in this text go back to doi:10.1101/2022.06.11.495646.

Where a chain is given by its changes, count along the chain named. Names may count otherwise. Results are given in words; binding and its absence hold for the method and conditions named. Binding seen in cells or lysates may run through a third protein. A result given as binding can be weak or reduced; the word gives no strength. Sequences can lack the tags named with a protein.

The target in experiment [1] is V5-tagged full length SMRTER (Drosophila). In words: co-IP.
The target of experiment [2] is V5-tagged SMRTER DAD domain (Drosophila). Briefly: co-IP.

B1: HA-tagged wild-type Drosophila HDAC3 (enzyme, UniProt Q7KTS4 1-438)
chain: MTDRRVSYFYNADVGNFHYGAGHPMKPQRLAVTHSLVMNYGLHKKMKIYRPYKASAQDMLRFHSDEYIAYLQQVTPQNIQCNSVAYTKYLAHFSVGEDCPVFDGLFDFCAMYTGASLEGAQKLNHNHSDICINWSGGLHHAKKFEASGFCYVNDIVIGILELLKYHPRVLYIDIDVHHGDGVQEAFYLTDRVMTASFHKYGNYFFPGTGDMYEIGAESGRYYSVNVPLKEGIDDQSYFQVFKPIISAIMDFYRPTAIVLQCGADSLAGDRLGCFSLSTKGHGECVKFVKELNVPTLVVGGGGYTLRNVARCWTHETSLLVDQDIENDLPATEYYDFFAPDFTLHPEINSRQDNANSKQYLELIVKHVYENLKMCQHSPSVQMVQTPPDVDLEELRSNREEASDPDVRISVADEDKLVDAKNEFYDGDQDQDKPDSAES
In the case of B1, the binding result in experiment [1] and in experiment [2] was “binds” in each case.

B2: HA-tagged Drosophila HDAC3 K26A mutant (enzyme, UniProt Q7KTS4 1-438)
chain: B1 chain with K26A
B2: the binding entry in experiment [1] and in experiment [2] was “binds” throughout.

B3: HA-tagged Drosophila HDAC3 Y303F mutant (enzyme, UniProt Q7KTS4 1-438)
chain: B1 chain with Y303F
B3: the binding entry in experiment [1] and in experiment [2] was “binds” each time.
